Structures can show the parent of a compound that is named as a salt. Hit rate of the full screen: of about 5,300 compounds, about 130 (2.5%) showed an effect of 50% or more. The list shows a part of the results.
Test system: M. mycetomatis strain mm55
Conditions: primary screen, metabolic activity vs growth control; 96 h, 2 µM; inhibitor

SMILES | % viability
CO/N=C1/C[C@@H](C(=O)NC[C@@H](O)c2ccccc2)N(C(=O)c2ccc(-c3ccccc3C)cc2)C1 [ONC0001890, otrantagonist1] | 132.6%
Cn1c(=O)c2c(ncn2CCOC(=O)C(C)(C)Oc2ccc(Cl)cc2)n(C)c1=O [ONC0003706, etofyllineclofibrate] | 113.3%
CC(C)NCC(O)COc1cccc2[nH]ccc12 (centres unmarked) [ONC0000503, pindolol] | 66.48%
CC(C)n1nccc1-c1ncccc1COc1cccc(O)c1C=O [ONC0001792, voxelotor] | 97.11%
CC[C@H]1CN2CCc3cc(OC)c(OC)cc3C2C[C@@H]1CC1NCCc2cc(OC)c(OC)cc21 (some centres unmarked) [ONC0000760, emetine dihydrochloride] | 79.69%
CC1(C)O[C@@H]2C[C@H]3[C@@H]4C[C@H](F)C5=CC(=O)C=C[C@]5(C)[C@H]4[C@@H](O)C[C@]3(C)[C@]2(C(=O)CO)O1 [ONC0000633, flunisolide] | 112.6%
CN(Cc1cc(Br)cc(Br)c1N)C1CCCCC1 [ONC0002822, bromhexine hydrochloride] | 79.46%
CN1C(=O)N(C)C2C1N(C)C(=O)N2C (centres unmarked) [ONC0002881, mebicar] | 100.3%
Cn1cnc(=N)c2nc[nH]c21 [ONC0004721, 3methyladenine 3ma] | 115.8%
CCCNCCc1ccc(NS(=O)(=O)c2ccc(OC(F)(F)F)cc2)cc1 [ONC0002556, pnu177864] | 83.59%
CCOC(=O)c1c2c3c(cccc3[nH]c1=O)C(=O)c1ccccc1-2 [ONC0001061, nqdi1] | 43.7%
C[C@H](CS)C(=O)N1CCC[C@H]1C(=O)O [ONC0000699, captopril] | 85.99%
CC(C)=CCC/C(C)=C/CC/C(C)=C/CC[C@]1(C)CCc2cc(O)cc(C)c2O1 [ONC0003398, deltatocotrienol] | 70.55%
Cc1c(-c2ccc(-c3ccccc3F)cc2)nc2ccc(F)cc2c1C(=O)O [ONC0004113, brequinar sodium salt hydrate] | 82.66%
CC(C)C[C@H](NC(=O)OCC1c2ccccc2-c2ccccc21)C(=O)O [ONC0005461, fmoclleucine] | 142.1%
COc1ccnc(C[S+]([O-])c2nc3ccc(OC(F)F)cc3[nH]2)c1OC (centres unmarked) [ONC0001058, pantoprazole sodium] | 66.04%
COc1ccccc1CN[C@H]1CCCN[C@H]1c1ccccc1 [ONC0002633, cp99994] | 71.16%

Among those listed so far, these contain four or more nitrogen atoms:
SMILES | % viability
Cn1c(=O)c2c(ncn2CCOC(=O)C(C)(C)Oc2ccc(Cl)cc2)n(C)c1=O [ONC0003706, etofyllineclofibrate] | 113.3%
CN1C(=O)N(C)C2C1N(C)C(=O)N2C (centres unmarked) [ONC0002881, mebicar] | 100.3%
Cn1cnc(=N)c2nc[nH]c21 [ONC0004721, 3methyladenine 3ma] | 115.8%

Source: paper PMC12670160, “A drug-repurposing screen of FDA- and EMA-approved drugs identifies two NF-κB inhibitors active against eumycetoma” (Journal of Antimicrobial Chemotherapy, 2025)
